# Results: paper PMC12040169 (PLOS Biology, 2025)
# This is one part of the list.
# System: T1, CTL2-GFP (C. trachomatis L2/434/Bu, GFP-expressing)
# T1 construct: L2/434/Bu, GFP-expressing
# Set-up: species or system HeLa; Intracellular C. trachomatis growth in HeLa cells, bulk GFP fluorescence relative to DMSO
# Details: bulk GFP, single well; 28.5 h, 10 µM; inhibitor
row,Structure (SMILES),% of control remaining
1,O=C(Nc1ccc2n(c1=O)C[C@H]1C[C@@H]2CN(C(=O)Cc2cccs2)C1)c1ccccc1 [CBK288709],107.433%
2,Cc1c(-c2cc(C(=O)NC(C)C3CC4CCC3C4)on2)cnn1C (stereo not drawn) [CBK281651],102.671%
3,COc1cc(-c2cnc3[nH]c(=O)n([C@@H](CO)C(C)C)c3n2)cc(OC)c1OC [CBK064471],173.15%
4,CC(C)(C)c1ccc(S(=O)(=O)N2CCCC[C@H]2COC(=O)COCC(=O)O)cc1 [CBK200064],116.948%
5,O=c1[nH]nc(CSCc2ccccc2Cl)[nH]1 [CBK267427],128.883%
6,CC(=O)c1ccc(-c2cc(C(=O)NCc3cccc(C(F)(F)F)c3)cnc2-c2ccccc2)s1 [CBK036641],164.359%
7,O=C(NC(=S)Nc1ccc(N2CCN(Cc3ccccc3F)CC2)cc1)c1ccco1 [CBK268946],165.525%
8,Cc1cc(COc2nc3ccccc3nc2N2CCCC2)no1 [CBK115768],100%
9,CC(C)[C@@H](CO)Nc1cncc(-c2ccc(O)cc2)n1 [CBK066038],99.6471%
10,Cc1nc(CN2CCC3(CC2)CN(C(=O)C(C)C)c2ccccc23)cs1 [CBK131476],110.823%
11,CC1c2ccsc2CCN1C(=O)c1ccnn1C(C)C (stereo not drawn) [CBK282079],109.526%
12,CCOC(=O)C(=O)N(C)c1c(CC)nc2c(OCc3ccccc3)cccn12 [CBK147879],186.637%
13,O=C(Cn1c(-c2cncs2)nc2ccccc21)Nc1ccc(C(=O)N2CCCCC2)cc1 [CBK269439],156.676%
14,O=C(CSc1ccc(Cl)cc1)Nc1cccc(-c2nc3ncccc3o2)c1 [CBK264989],99.8796%
15,C=CCN(C)C(=O)[C@H]1C[C@@H](O)[C@H](O)[C@@H]2N=C(Nc3ccc(OC)cc3)S[C@@H]21 [CBK288947],124.6%
16,Cc1cccc(Cl)c1OCC(O)CNCCc1ccccc1 (stereo not drawn) [CBK003076],116.138%
17,COc1cc(Nc2cc(-c3ccco3)ncn2)cc(OC)c1OC [CBK090706],110.859%
18,C#CCOC(=O)Nc1cnc(N2CCOCC2)c(C(F)(F)F)c1 [CBK019679],168.572%
19,Cc1ccc(N2CCN(C3=NC(=O)/C(=C\c4ccc(O)c([N+](=O)[O-])c4)S3)CC2)cc1 [CBK264347],100%
20,O=C(CN1C(=O)[C@@H]2CCCN2c2ncccc21)NC(c1ccccc1)c1ccccc1 [CBK286205],98.1948%

# Looked up above:
# For % of control remaining, COc1cc(Nc2cc(-c3ccco3)ncn2)cc(OC)c1OC [CBK090706] is listed with 110.859%
# For % of control remaining, O=C(Nc1ccc2n(c1=O)C[C@H]1C[C@@H]2CN(C(=O)Cc2cccs2)C1)c1ccccc1 [CBK288709] is listed with 107.433%
# For % of control remaining, O=C(NC(=S)Nc1ccc(N2CCN(Cc3ccccc3F)CC2)cc1)c1ccco1 [CBK268946] is listed with 165.525%

# Following part.

row,Structure (SMILES),% of control remaining
1,CC(Nc1nc(-c2ccc([N+](=O)[O-])cc2)nc2ccccc12)c1ccccc1 (stereo not drawn) [CBK264767],100%
2,O=C(Cc1cc(Cl)ccc1C(F)(F)F)NCCc1c[nH]c2ccc(Cl)cc12 [CBK159759],56.5377%
3,O=C(O)C1C2CCC(O2)C1C(=O)Nc1ccc2c(c1)OCCO2 (stereo not drawn) [CBK263677],107.287%
4,CC(=O)N1CCC[C@H]2NC(=O)CNC(=O)C3(C/C=C/C[C@H]21)CCN(CC1CCC1)CC3 [CBK292129],145.12%
5,COc1ccc(S(=O)(=O)NCCNC(=O)c2cc(-c3cccnc3)cnc2NCc2ccc3c(c2)OCO3)cc1 [CBK076379],112.503%
6,C1=CC2CC1CC2CN1CCN(Cc2cccnc2)CC1 (stereo not drawn) [CBK027284],151.051%
7,CCOC(=O)c1c(C)nc2ccccc2c1O [CBK153666],111.205%
8,CC(C)Nc1nc2ccccc2nc1SCCN(C)C [CBK103672],86.7198%
9,CCc1nn(CC(=O)N(C)C)c(=O)c2cc3sc(C)cc3n12 [CBK284102],82.8915%
10,CCCn1c(C)cc2cc(NC(=O)Cn3cc(C)nn3)ccc21 [CBK281548],96.2909%
11,CN1CCN(c2ccc(-c3ccc(Cl)cc3)cn2)CC1 [CBK036945],149.076%
12,Cl.Nc1ncc([C@@H]2O[C@H](CO)[C@H](O)C2O)c(=O)[nH]1 (stereo partly drawn) [CBK201205],163.863%
13,COCCNc1nc(-c2cncc(OC)c2)cnc1N [CBK063606],141.366%
14,COc1cc(CN2CCC3(CC2)CN(CC(N)=O)c2ccccc23)cc(OC)c1OC [CBK126774],115.72%
15,N#CCCCN1CCC(Oc2nccnc2OCC2COc3ccccc3O2)CC1 (stereo not drawn) [CBK082994T],112.457%
16,O=C(O)C[C@@H]1CCN(C(=O)c2ccco2)C[C@@H]1CC1=NCCc2cc(F)ccc21 [CBK289166],129.327%
17,O=C(NCc1ccccc1)c1ccc(NC(=O)c2cc(-n3cnnc3)ccc2Cl)cc1 [CBK267896],121.335%
18,Oc1ccc(/C=C/c2nc(-c3ccccc3O)n(-c3ccccc3)n2)cc1 [CBK265289],116.287%
19,O=C1CC(c2ccco2)Cc2c1cnn2-c1nc2ccccc2s1 (stereo not drawn) [CBK269292],157.706%
